Article PMC11753425
For at least one entry, the source does not settle the construct or the ends of the probe. At least one verdict was read from the data and is not stated in words by the source. Protein sequences can lack the tags named with them.

Target: T1, OrfGExt (VirB8-like OrfG soluble domain) (Streptococcus thermophilus (ICESt3)) (UniProt Q70CA4)
T1 sequence (looked up): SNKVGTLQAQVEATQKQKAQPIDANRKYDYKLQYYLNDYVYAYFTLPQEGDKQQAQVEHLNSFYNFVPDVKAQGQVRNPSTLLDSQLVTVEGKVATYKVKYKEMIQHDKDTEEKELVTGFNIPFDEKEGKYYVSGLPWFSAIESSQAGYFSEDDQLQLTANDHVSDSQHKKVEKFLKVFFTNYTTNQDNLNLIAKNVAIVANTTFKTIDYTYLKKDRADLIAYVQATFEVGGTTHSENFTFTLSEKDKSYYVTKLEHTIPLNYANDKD
Test: switchSENSE (conformation and sizing)
Conditions: switchSENSE buffer; recombinant protein; residues 64-331; label: fluorophore on the tethered nanolever strand; single-stranded DNA

“GAGACTTCAACCCCCGATTTCTAATAGGGGGGTTACATTTTCAAGATTTAGAAAGTGTGTCACTTTGGTCCAAAAAGTGTGTCACTTAGTCAAAAGGAGATATATCAGCGTTCGATGCTTCCGACTAATCAGCCATATCAGCTTACGACTA [ssOV (ssDNA overhang)]”: binds.
